Source: article PMC9977783, “Ligand-specific changes in conformational flexibility mediate long-range allostery in the lac repressor” (Nature Communications, 2021)
For some assays here: Negatives hold for the conditions tested. For some assays here: For at least one entry, the source does not settle the construct or the ends of the probe. For some assays here: The comparison behind a weaker result is the experiment's own reference, which may not be listed here.

The chains behind the UniProt entries cited, without tags or fusion partners. Residues count along the entry.
UniProt P03023, 1-331: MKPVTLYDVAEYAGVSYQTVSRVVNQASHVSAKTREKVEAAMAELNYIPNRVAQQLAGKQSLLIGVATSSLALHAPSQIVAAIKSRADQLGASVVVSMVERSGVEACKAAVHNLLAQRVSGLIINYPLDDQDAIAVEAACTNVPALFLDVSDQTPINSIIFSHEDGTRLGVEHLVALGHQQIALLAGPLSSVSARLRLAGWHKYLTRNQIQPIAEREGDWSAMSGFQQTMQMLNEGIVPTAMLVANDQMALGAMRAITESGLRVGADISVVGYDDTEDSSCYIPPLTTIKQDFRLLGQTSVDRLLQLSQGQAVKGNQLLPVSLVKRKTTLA

Experiments:
[1] = target: LacI dimeric (lac repressor, tetramerization domain removed) (Escherichia coli) (UniProt P03023); test: BLI; conditions: IPTG, LacI 0-40 nM, BLI: PBS with 0.2% BSA, 0.05% Tween-20, pH 8.0, room temperature, global 1:1 kinetic fit, recombinant protein, residues 1-331, label: 5'-biotin on forward strand
[2] = target: LacI dimeric (lac repressor, tetramerization domain removed) (Escherichia coli) (UniProt P03023); test: HDX/MS; conditions: IPTG, expected about 50% DNA-bound; HDX/MS: 50 mM MOPS, 200 mM NaCl, 0.5 mM TCEP, pH 7.0, equilibrated at 4 C; recombinant protein; residues 1-331

Row | Sequence | binding result [1] | binding result [2]
1 | AGTAGTGGAATTGTGAGCGGATAACAATTGACATTGTGAGCGGATAACAAGATACTGAGCACATCAGC (double strand) [Olac (LacO1 natural operator, BLI)] | no binding | 
2 | AGTAGTGGAATTGTGAGCGGATAACAATTGACATTGTGAGCGGATAACAAGATACTGAGCACATCAGC (double strand) [Olac (LacO1, 68 bp, HDX/MS)] |  | binds more weakly
